# In the supplement of paper PMC8256030:
# Several values for one entry are separate records, joined by “and”; a condition that tells them apart may be missing. Identical values can stand only once. The list shows a part of the results. This data set is noisy: repeats of one test often differ as much as different tests do.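 HEK293T cells were given each compound shortly before transfection with a reporter in which red mCherry is followed by the SARS-CoV-2 frameshift element and then GFP in the −1 frame, so GFP appears only after frameshifting.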
# System: SARS-CoV-2 -1 PRF reporter mCherry-FSE-GFP(-1)
# Test: percent effect, decrease of GFP/mCherry ratio (-1 PRF reporter) relative to controls; higher = stronger frameshift inhibition
# Settings: 10 µM; 24 h; HEK293T
row,SMILES,percent effect
1,CCN(CCCc1ccccc1)CCCc1ccccc1,-3.65%
2,CCCc1c(OCCCOc2cc(O)c(-c3ccc(F)cc3)cc2CC)cccc1Oc1ccccc1C(=O)O [etalocib],-3.79%
3,CC(C)NC(=O)[C@H]1CCC[C@H]1Nc1nc(Nc2ccc(C(=O)N(C)C3CCN(C)CC3)cc2)ncc1Cl,-0.316%
4,CN(C)CCC(O)(c1ccccc1)c1ccccc1Cl (stereo not given) [clofedanol],-3.01%
5,CSc1ccc(OCc2ncc([N+](=O)[O-])n2C)cc1 [fexinidazole],-3.98%
6,CCCCCCOc1ccccc1C(N)=O [exalamide],2.53%
7,NCCC(O)(P(=O)(O)O)P(=O)(O)O [pamidronic acid],-1.61%
8,C[C@H]1COc2c(C3(N)CC3)c(F)cc3c(=O)c(C(=O)O)cn1c23,-1.41%
9,CC(=O)O[C@H](CC(=O)[O-])C[N+](C)(C)C [Acetylcarnitine],-0.718%
10,NCCC(O)(P(=O)(O)O)P(=O)(O)O [Pamidronate·2Na·5H2O],-3.8%
11,CC(=O)O[C@]1(C(C)=O)CC[C@H]2[C@@H]3C=C(C)C4=CC(=O)CC[C@]4(C)[C@H]3CC[C@@]21C [Megestrol Acetate],3.12%
12,OCCOCCN1CCN(C(c2ccccc2)c2ccccc2)CC1 [decloxizine],-4.93%
13,Clc1ccc(C(Cn2ccnc2)OCc2ccsc2Cl)c(Cl)c1 (stereo not given) [tioconazole],-1.42%
14,CC(=O)c1ccc2c(c1)C(=O)C1(CC1)O2 [spizofurone],-5.57%
15,N=C(N)C(O)c1ccc2c(c1)OCO2 (stereo not given) [olmidine],-11.9%
16,NOCc1ccc(Br)c(O)c1 [brocresine],-12.3%
17,COC(=O)[C@H](c1ccccc1Cl)N1CCc2sccc2C1 [clopidogrel],-4.55% and 1.28%
18,CCCCC(=O)O[C@]1(C(=O)CO)CC[C@H]2[C@@H]3CCC4=CC(=O)CC[C@]4(C)[C@H]3[C@@H](O)C[C@@]21C,-0.651%
19,OC[C@H]1O[C@@H](n2cnc3c2N=CNC[C@H]3O)C[C@@H]1O [pentostatin],-1.8%
20,OCC(O)C(O)C(O)C(O)CO (stereo not given),0.393%

row,SMILES,percent effect
1,O=c1ccc2ccccc2o1,-4.27%
2,CC(NCCC(c1ccccc1)c1ccccc1)c1ccccc1 (stereo not given) [fendiline],-0.837%
3,CCCCCCCCCCCCCCCC[N+](C)(C)C [cetrimonium bromide],-19.2%
4,CC#CCC(C)[C@H](O)/C=C/[C@@H]1[C@H]2C/C(=C/CCCC(=O)O)C[C@H]2C[C@H]1O (stereo not given in full) [iloprost],-13.3%
5,O=C1O[C@H]([C@@H](O)CO)C(O)=C1O [Vitamin C],-5.31%
6,CCc1ncnc2cc(OC)c(OC)cc12 [quazodine],-6.52%
7,O=C(O)c1cccc(/C=C2/C[C@@H]3[C@@H](/C=C/[C@@H](O)C4CCCCC4)[C@H](O)C[C@@H]3O2)c1 [taprostene],-3.72%
8,CN(C)CCn1cnc2c1c(=O)n(C)c(=O)n2C [dimethazan],-4.54%
9,NS(=O)(=O)c1ccc(NCS(=O)(=O)O)cc1 [mesulfamide],-3.57%
10,Cc1cc2c(s1)Nc1ccccc1N=C2N1CCN(C)CC1,-3.14%
11,CC(=O)c1ccc2c(c1)N(CCCN1CCC(CCO)CC1)c1ccccc1S2 [piperacetazine],-3.64%
12,CN(C)CCOC(C)(c1ccccc1)c1ccc(Cl)cc1 (stereo not given) [chlorphenoxamine],1.1%
13,Nc1ccc(S(=O)(=O)Nc2ncccn2)cc1 [sulfadiazine],0.885% and 7.04%
14,CC(C)c1cc(C(C)C)c(CC(=O)NS(=O)(=O)Oc2c(C(C)C)cccc2C(C)C)c(C(C)C)c1 [avasimibe],-11.6%
15,C=C1CC[C@H](O)C/C1=C/C=C1\CCC[C@]2(C)[C@@H]([C@H](C)CCCC(C)(C)O)CC[C@@H]12 [calcifediol],0.387% and -0.41%
16,CCc1oc2ccccc2c1C(=O)c1cc(I)c(O)c(I)c1 [benziodarone],-0.0238%
17,CC12CC3CC(C)(C1)CC(N)(C3)C2 [memantine],-0.269% and 1.08%
18,CC(C)(C)NCC(O)c1cc(Br)no1 (stereo not given) [broxaterol],-0.205%
19,CC1=C(C(=O)O)N2C(=O)[C@@H](NC(=O)[C@H](N)C3=CCC=CC3)[C@H]2SC1 [Velosef],-3.07%
20,CN(C)c1ccc(O)c2c1C[C@H]1C[C@H]3[C@H](N(C)C)C(=O)C(C(N)=O)=C(O)[C@@]3(O)C(=O)C1=C2O [Minocycline],3.86%
